According to PMC9910796:
Results are given in words; binding and its absence hold for the method and conditions named. Binding seen in cells or lysates may run through a third protein. Some binding calls cover weakened binding; strength is not graded here.

Target: pp220NT-V5 (N-terminal fragment of polyprotein pp220 comprising the p5 and p34 regions, fused to a [change] tag) (African swine fever virus) (UniProt Q08358)
Assay: co-IP; […] (0.1% Triton X-100 in PBS, […]

Q: With “pEP84R-Flag (ASFV transmembrane protein pEP84R with a C-terminal 3x-Flag tag) (from UniProt Q07383 1-84)” as the substance, how does the binding read?
A: binds
